Assay: TMTcalibrator quantification of regulated proteins in AD CSF versus control
Set-up: species or system human
Details: CSF of AD patient versus control; non-modified peptides of each protein summed for three control and three AD cases

B1: Q9H936 (protein, UniProt Q9H936 1-323, looked up)
chain: MADKQISLPAKLINGGIAGLIGVTCVFPIDLAKTRLQNQQNGQRVYTSMSDCLIKTVRSEGYFGMYRGAAVNLTLVTPEKAIKLAANDFFRHQLSKDGQKLTLLKEMLAGCGAGTCQVIVTTPMEMLKIQLQDAGRIAAQRKILAAQGQLSAQGGAQPSVEAPAAPRPTATQLTRDLLRSRGIAGLYKGLGATLLRDVPFSVVYFPLFANLNQLGRPASEEKSPFYVSFLAGCVAGSAAAVAVNPCDVVKTRLQSLQRGVNEDTYSGILDCARKILRHEGPSAFLKGAYCRALVIAPLFGIAQVVYFLGIAESLLGLLQDPQA
modifications: full-length
- Log2 AD/Control: 0.66

B2: P07108 (protein, UniProt P07108 1-87, looked up)
chain: MSQAEFEKAAEEVRHLKTKPSDEEMLFIYGHYKQATVGDINTERPGMLDFTGKAKWDAWNELKGTSKEDAMKAYINKVEELKKKYGI
modifications: full-length
- Log2 AD/Control: 1.18

B3: O95865 (protein, UniProt O95865 1-285, looked up)
chain: MGTPGEGLGRCSHALIRGVPESLASGEGAGAGLPALDLAKAQREHGVLGGKLRQRLGLQLLELPPEESLPLGPLLGDTAVIQGDTALITRPWSPARRPEVDGVRKALQDLGLRIVEIGDENATLDGTDVLFTGREFFVGLSKWTNHRGAEIVADTFRDFAVSTVPVSGPSHLRGLCGMGGPRTVVAGSSDAAQKAVRAMAVLTDHPYASLTLPDDAAADCLFLRPGLPGVPPFLLHRGGGDLPNSQEALQKLSDVTLVPVSCSELEKAGAGLSSLCLVLSTRPHS
modifications: full-length
- Log2 AD/Control: 0.83

B4: O14745 (protein, UniProt O14745 1-358, looked up)
chain: MSADAAAGAPLPRLCCLEKGPNGYGFHLHGEKGKLGQYIRLVEPGSPAEKAGLLAGDRLVEVNGENVEKETHQQVVSRIRAALNAVRLLVVDPETDEQLQKLGVQVREELLRAQEAPGQAEPPAAAEVQGAGNENEPREADKSHPEQRELRPRLCTMKKGPSGYGFNLHSDKSKPGQFIRSVDPDSPAEASGLRAQDRIVEVNGVCMEGKQHGDVVSAIRAGGDETKLLVVDRETDEFFKKCRVIPSQEHLNGPLPVPFTNGEIQKENSREALAEAALESPRPALVRSASSDTSEELNSQDSPPKQDSTAPSSTSSSDPILDFNISLAMAKERAHQKRSSKRAPQMDWSKKNELFSNL
modifications: full-length
- Log2 AD/Control: 1.06

B5: Q9UHQ9 (protein, UniProt Q9UHQ9 1-305, looked up)
chain: MGIQTSPVLLASLGVGLVTLLGLAVGSYLVRRSRRPQVTLLDPNEKYLLRLLDKTTVSHNTKRFRFALPTAHHTLGLPVGKHIYLSTRIDGSLVIRPYTPVTSDEDQGYVDLVIKVYLKGVHPKFPEGGKMSQYLDSLKVGDVVEFRGPSGLLTYTGKGHFNIQPNKKSPPEPRVAKKLGMIAGGTGITPMLQLIRAILKVPEDPTQCFLLFANQTEKDIILREDLEELQARYPNRFKLWFTLDHPPKDWAYSKGFVTADMIREHLPAPGDDVLVLLCGPPPMVQLACHPNLDKLGYSQKMRFTY
modifications: full-length
- Log2 AD/Control: 0.72

B6: O14734 (protein, UniProt O14734 1-319, looked up)
chain: MSSPQAPEDGQGCGDRGDPPGDLRSVLVTTVLNLEPLDEDLFRGRHYWVPAKRLFGGQIVGQALVAAAKSVSEDVHVHSLHCYFVRAGDPKLPVLYQVERTRTGSSFSVRSVKAVQHGKPIFICQASFQQAQPSPMQHQFSMPTVPPPEELLDCETLIDQYLRDPNLQKRYPLALNRIAAQEVPIEIKPVNPSPLSQLQRMEPKQMFWVRARGYIGEGDMKMHCCVAAYISDYAFLGTALLPHQWQHKVHFMVSLDHSMWFHAPFRADHWMLYECESPWAGGSRGLVHGRLWRQDGVLAVTCAQEGVIRVKPQVSESKL
modifications: full-length
- Log2 AD/Control: 0.76

B7: Q5HYI7 (protein, UniProt Q5HYI7 1-312, looked up)
chain: MAAPLELSCWGGGWGLPSVHSESLVVMAYAKFSGAPLKVNVIDNTWRGSRGDVPILTTEDDMVSQPAKILNFLRKQKYNADYELSAKQGADTLAYIALLEEKLLPAVLHTFWVESDNYFTVTKPWFASQIPFPLSLILPGRMSKGALNRILLTRGQPPLYHLREVEAQIYRDAKECLNLLSNRLGTSQFFFGDTPSTLDAYVFGFLAPLYKVRFPKVQLQEHLKQLSNLCRFCDDILSSYFRLSLGGISPAGQETVDANLQKLTQLVNKESNLIEKMDDNLRQSPQLPPRKLPTLKLTPAEEENNSFQRLSP
modifications: full-length
- Log2 AD/Control: 1.07

B8: Q10713 (protein, UniProt Q10713 1-525, looked up)
chain: MAAVVLAATRLLRGSGSWGCSRLRFGPPAYRRFSSGGAYPNIPLSSPLPGVPKPVFATVDGQEKFETKVTTLDNGLRVASQNKFGQFCTVGILINSGSRYEAKYLSGIAHFLEKLAFSSTARFDSKDEILLTLEKHGGICDCQTSRDTTMYAVSADSKGLDTVVALLADVVLQPRLTDEEVEMTRMAVQFELEDLNLRPDPEPLLTEMIHEAAYRENTVGLHRFCPTENVAKINREVLHSYLRNYYTPDRMVLAGVGVEHEHLVDCARKYLLGVQPAWGSAEAVDIDRSVAQYTGGIAKLERDMSNVSLGPTPIPELTHIMVGLESCSFLEEDFIPFAVLNMMMGGGGSFSAGGPGKGMFSRLYLNVLNRHHWMYNATSYHHSYEDTGLLCIHASADPRQVREMVEIITKEFILMGGTVDTVELERAKTQLTSMLMMNLESRPVIFEDVGRQVLATRSRKLPHELCTLIRNVKPEDVKRVASKMLRGKPAVAALGDLTDLPTYEHIQTALSSKDGRLPRTYRLFR
modifications: full-length
- Log2 AD/Control: 0.70

B9: P56181 (protein, UniProt P56181 1-108, looked up)
chain: MAAPCLLRQGRAGALKTMLQEAQVFRGLASTVSLSAESGKSEKGQPQNSKKQSPPKKPAPVPAEPFDNTTYKNLQHHDYSTYTFLDLNLELSKFRMPQPSSGRESPRH
modifications: full-length
- Log2 AD/Control: 0.70

B10: P12235 (protein, UniProt P12235 1-298, looked up)
chain: MGDHAWSFLKDFLAGGVAAAVSKTAVAPIERVKLLLQVQHASKQISAEKQYKGIIDCVVRIPKEQGFLSFWRGNLANVIRYFPTQALNFAFKDKYKQLFLGGVDRHKQFWRYFAGNLASGGAAGATSLCFVYPLDFARTRLAADVGKGAAQREFHGLGDCIIKIFKSDGLRGLYQGFNVSVQGIIIYRAAYFGVYDTAKGMLPDPKNVHIFVSWMIAQSVTAVAGLVSYPFDTVRRRMMMQSGRKGADIMYTGTVDCWRKIAKDEGAKAFFKGAWSNVLRGMGGAFVLVLYDEIKKYV
modifications: full-length
- Log2 AD/Control: 0.71

B11: Q13825 (protein, UniProt Q13825 1-339, looked up)
chain: MAAAVAAAPGALGSLHAGGARLVAACSAWLCPGLRLPGSLAGRRAGPAIWAQGWVPAAGGPAPKRGYSSEMKTEDELRVRHLEEENRGIVVLGINRAYGKNSLSKNLIKMLSKAVDALKSDKKVRTIIIRSEVPGIFCAGADLKERAKMSSSEVGPFVSKIRAVINDIANLPVPTIAAIDGLALGGGLELALACDIRVAASSAKMGLVETKLAIIPGGGGTQRLPRAIGMSLAKELIFSARVLDGKEAKAVGLISHVLEQNQEGDAAYRKALDLAREFLPQGPVAMRVAKLAINQGMEVDLVTGLAIEEACYAQTIPTKDRLEGLLAFKEKRPPRYKGE
modifications: full-length
- Log2 AD/Control: 1.50

Reference: US12419871B2, “Biomolecules involved in Alzheimer's disease” (ELECTROPHORETICS LIMITED, priority 2015, dated 2025)
